Source: article PMC10199885
No constants are given. Whether binding was seen depends on the method and setting. In cells and extracts the contact can be indirect. These calls come from enrichment with a bait or labelling near it, and not all partners need be listed.

By UniProt entry, the sequences of proteins in these tests, tags left out. Residues count along the entry.
UniProt Q10589, residues 1-161: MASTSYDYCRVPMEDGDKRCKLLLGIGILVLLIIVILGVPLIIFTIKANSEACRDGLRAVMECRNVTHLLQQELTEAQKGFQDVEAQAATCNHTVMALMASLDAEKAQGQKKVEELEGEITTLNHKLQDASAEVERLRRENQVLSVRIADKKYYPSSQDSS
UniProt P27824, residues 21-592: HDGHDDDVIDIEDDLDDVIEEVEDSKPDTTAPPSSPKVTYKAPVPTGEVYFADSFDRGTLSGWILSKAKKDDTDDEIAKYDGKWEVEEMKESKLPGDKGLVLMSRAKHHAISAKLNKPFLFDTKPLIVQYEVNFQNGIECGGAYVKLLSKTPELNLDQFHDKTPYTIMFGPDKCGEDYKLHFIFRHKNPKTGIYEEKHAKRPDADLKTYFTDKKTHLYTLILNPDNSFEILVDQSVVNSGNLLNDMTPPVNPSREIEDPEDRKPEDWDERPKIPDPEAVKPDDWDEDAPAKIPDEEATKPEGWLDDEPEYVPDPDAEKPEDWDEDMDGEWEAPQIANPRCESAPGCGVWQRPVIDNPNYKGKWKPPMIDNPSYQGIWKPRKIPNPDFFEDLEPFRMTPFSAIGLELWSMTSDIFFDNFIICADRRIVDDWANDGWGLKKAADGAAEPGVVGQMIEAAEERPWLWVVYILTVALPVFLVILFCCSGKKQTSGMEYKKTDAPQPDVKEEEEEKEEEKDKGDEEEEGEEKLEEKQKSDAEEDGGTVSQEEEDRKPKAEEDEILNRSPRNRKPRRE

Target: HA-CD317 (expressed in HEK293T cells) (human) (UniProt Q10589)
Experiment: affinity purification with mass spectrometry; lysates of HEK293T cells expressing HA-CD317, IP with anti-HA antibody, LC-MS/MS of the IP samples

For “Calnexin (CNX), endogenous in HEK293T cells (from UniProt P27824 21-592)”, the binding was “binds”.
